We go through one molecule from article doi:10.1101/2022.06.21.497121.

Results are given in words; binding and its absence hold for the method and conditions named. A result given as binding can be weak or reduced; the word gives no strength.

For the assay, the target named is PPE68 of M. marinum, endogenous (M. marinum (endogenous in M. marinum M)). The assay is described as follows: native gel or EMSA.

B1: MMAR_2894 (M. marinum-specific PE protein) (protein, UniProt B2HE54 1-230)
chain: MDPMSHDPAAGDIGSQLVDIGTQGISAGTTAAMTVLTGLIPAGAEEVSAQAVLAFAQEAATMLASNVAAQEELMRTGTALSDIARMYGDADDVAADALTFRGAAMSNPAAAGSSGFATGAGLRAGAFATEAGPAAQPLVSQLIGSQSSPMAAAAANAGSSAMSGAAPMGSGMGAGSSAGGASKPGLVSATGPADEEEERKDSAAAGEQNGLADVGQREDASGSHPVERLM
For B1, the binding entry is “binds”.
